# The supplement of paper PMC10338343
# ± gives the standard deviation. The list shows a part of the results, in another mix than the full data. Many of these values have a large error.
# Legend:
# [1] = test system: MILI (PIWIL2) piRISC loaded with piRNA #1 (26 nt); assay: pre-steady-state target cleavage rate (min^-1); MIWI and MILI are mouse PIWI proteins and EfPiwi is from a freshwater sponge; tags in brackets are library labels; higher = faster piRNA-guided slicing of the target; conditions: guide: piRNA #1 5'p-UGAGGUAGUAGGUUGUAUAGUAUCCA; auxiliary factor: 500 nM mouse GTSF1
# In short: (§1)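 Cleave-'n-Seq measured uncleaved targets by sequencing after a transcribed, DNA-blocked target RNA library […] was mixed with 1 nM active affinity-purified piRISC holding one synthetic guide, with or without 500 nM GTSF1 partner protein, at 33 °C in HEPES–potassium acetate buffer for 0–8 or 0–960 min. Counts were normalised to depth and to weakly complementary targets, three trials were pooled, and k3 was capped at 0.0001 min^-1. A burst-and-steady-state fit gave the pre-steady-state cleavage rate.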
# [2] = test system: MIWI (PIWIL1) piRISC loaded with piRNA #1 (30 nt); assay: as above; conditions: guide: piRNA #1 5'p-UGAGGUAGUAGGUUGUAUAGUAUCCAGAGG; auxiliary factor: 500 nM mouse GTSF1
# In short: as §1
# 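Further: 1 nM active piRISC with 0.1 nM target library at 33 °C single turnover.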
Sequence,pre-steady-state target cleavage rate [1],pre-steady-state target cleavage rate [2]
GGAGAGGAUACUAUACAAUCCUACUACCUCA,0.00247 ± 0.0029,0.000922 ± 0.0081
GGAGACCAUACUAUACAAGGAACUACCUCA,0.00168 ± 0.0046,0.000761 ± 0.0062
GGAGACCUAUGAUAACAACCUUACUACCUCA,0.00138 ± 0.0054,0.000223 ± 0.011
GGAGACGAUACUAUUCAUCCUACUACCUCA,0.264 ± 0.021,1.09 ± 0.061
GGAGUGGAUACUAUACAACCUACUAGGAGA [g6:g26:cont:t1A],0.000669 ± 0.0052,0.000559 ± 0.0066
GGAGACCUAUGAUUUCAACCUUCUACCUCA,0.00225 ± 0.0026,0.000553 ± 0.0042
GGAGACCUAUGAUAUCAACCUACUAUCCUCA,0.00268 ± 0.0037,0.00037 ± 0.0067
GGAGACCUAUGAUUUCAACCUACUACCACA,0.000882 ± 0.0058,0.000165 ± 0.014
GGAGACCAUACUAUACUAACCUACUACCUCA,0.00233 ± 0.005,0.000645 ± 0.012
GGAGACCUAUGAUAACUACCUACUACCUGA,0.000599 ± 0.0083,0.000122 ± 0.016
GGAGACCUAUGAUAUGUUCCUUCUACGUCA,0.00016 ± 0.022,0.000335 ± 0.011
GGAGACCUAUGAUAUGUUCCAAGUACCUCA,0.000399 ± 0.012,0.000126 ± 0.018
GGAGACCUUACUAUACAACCUUGAACCUCA,0.000166 ± 0.022,0.000253 ± 0.014
GGAGACCUAUGAAUACAACCUAGUACGUCA,0.000821 ± 0.0073,0.000549 ± 0.006
GGAGACCUAUGAUAUCAACCUACUUCCUCA,0.00124 ± 0.0035,0.000171 ± 0.011
GGAGACCUAUGAUUACAACCUACGUACCUCA,0.00348 ± 0.0039,0.00128 ± 0.0042
GGAGACCUAUGAUUACAACCUACUACGAGA,0.0012 ± 0.0049,0.000564 ± 0.012
GGAGACCUAUGAAUACAACCUAUACCUCA,0.000457 ± 0.0099,0.00014 ± 0.016
GGAGACCUAUGAUAUGUAACUACUACCUCA,0.000119 ± 0.023,0.00016 ± 0.018
GGAGACCUAUGAUUACAACCUCUACCUCA,0.000139 ± 0.026,0.000204 ± 0.0085

# 2 consecutive entries out of the list so far:
Sequence,pre-steady-state target cleavage rate [1],pre-steady-state target cleavage rate [2]
GGAGACCUAUGAAUACAACCUAUACCUCA,0.000457 ± 0.0099,0.00014 ± 0.016
GGAGACCUAUGAUAUGUAACUACUACCUCA,0.000119 ± 0.023,0.00016 ± 0.018
